SMILES strings stand for the structures.

How the values of the series were obtained:
(1) Leakage tests (without current) using dye and silicone rubber than skin; (2) leakage tests using dye and skin (without current); and (3) iontophoretic tests using the drug solutions and skin (with and without current). Procedures (1) and (2) were evaluated by visually inspecting the cell. […] The activity of the skin 13 and of the samples taken from the receptor chamber was determined post-experimentally. Each experiment lasts approximately 24 hours, ±2 hours, with samples collected hourly. Receptor fluid 17 was magnetically stirred (27), and the collection flow rate was 10 ml/hr.

On to `CN1CC[C@]23c4c5ccc(O)c4O[C@H]2[C@@H](O)C=C[C@H]3[C@H]1C5.O=S(=O)(O)O` [morphine sulfate, Morphine sulfate], for which the “Amount of labelled drug in the buffered saline of chamber 16C” value came out at 1 µg.

(Values after US5279543A, “Device for iontophoretic non-invasive sampling or delivery of substances” (priority 1992, dated 1994).)
